The target of series [1] is Lef1-GST (zebrafish) (UniProt Q9W7C0). Kind of series: EMSA. The note with it: 100 ng protein, EMSA per Hellman and Fried 2007, 4% (0.6-kb) or 6% (oligos) non-denaturing acrylamide gel, recombinant protein, residues 1-365, protein details: GST (pGEX4T-1), label: 32P. (In general: Mobility shift assays separate free from complexed probe on a gel.)
For series [2], the system named is Tcf7 (zebrafish). Kind of series: EMSA. The note with it: EMSA per Hellman and Fried 2007; 4% (0.6-kb) or 6% (oligos) non-denaturing acrylamide gel; pH and temperature not stated; recombinant protein; label: 32P.
[3] abbreviates: predominantly binds D2, pH and temperature not ….

Chains of the proteins cited; added tags and fusions are not shown. A line that says so, or that is headed by a name, gives the form on record, which may keep a tag or linker.
UniProt Q9W7C0, entry or part of it: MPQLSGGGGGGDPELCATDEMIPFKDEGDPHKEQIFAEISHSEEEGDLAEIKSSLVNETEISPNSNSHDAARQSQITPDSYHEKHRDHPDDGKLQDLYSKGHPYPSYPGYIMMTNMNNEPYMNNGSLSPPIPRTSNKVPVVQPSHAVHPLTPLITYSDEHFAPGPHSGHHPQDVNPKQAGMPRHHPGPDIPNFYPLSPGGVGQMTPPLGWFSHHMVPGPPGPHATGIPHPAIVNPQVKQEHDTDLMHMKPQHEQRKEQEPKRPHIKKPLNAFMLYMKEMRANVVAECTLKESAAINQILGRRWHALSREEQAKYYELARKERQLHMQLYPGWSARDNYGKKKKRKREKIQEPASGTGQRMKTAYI
Tcf7 (zebrafish), one chain, as listed by the source: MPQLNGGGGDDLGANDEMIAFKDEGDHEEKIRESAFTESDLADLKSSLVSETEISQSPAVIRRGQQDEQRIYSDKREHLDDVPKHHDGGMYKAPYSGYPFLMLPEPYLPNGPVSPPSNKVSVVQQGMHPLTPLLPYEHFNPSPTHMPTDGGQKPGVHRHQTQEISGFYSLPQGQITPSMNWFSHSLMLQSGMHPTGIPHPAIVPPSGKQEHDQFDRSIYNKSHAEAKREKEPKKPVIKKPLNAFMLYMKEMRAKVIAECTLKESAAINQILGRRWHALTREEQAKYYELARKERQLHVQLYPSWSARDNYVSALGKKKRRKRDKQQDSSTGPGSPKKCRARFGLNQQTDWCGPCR

We go through four sequences from paper PMC4728341.

The exact form of at least one protein or probe is not confirmed. For some assays here: No signal at the amounts used counts as a negative. For some assays here: The comparison behind a weaker result is the experiment's own reference, which may not be listed here. For some assays here: At least one verdict was read from the data and is not stated in words by the source.

Consider “TATTTATCCATAGTTTAGAT (double strand) [D2m]”, for which, in series [1] (pH and temperature not stated), the binding result is reported as “no binding”.
Take “TACACCCACAGAGACATTTG (double strand) [D3]”: the binding result in series [1] (setting [3]) is given as “binds more weakly”.
As to “GGGACTCTGTTTACAGGGGG (double strand) [D1]”, the binding result in series [1] (setting [3]) is listed as “binds more weakly”.
As to “TATTTATCCTTTGTTTAGAT (double strand) [D2]”, the binding result is on record as “binds” in series [1] (pH and temperature not stated); “binds” in series [2].
